Source: patent US20100022401A1, “Avidin-like proteins from symbiotic bacteria” (LICENTIA OY, priority 2004, published 2010)

System: human serum antibodies elicited toward avidin and streptavidin
Experiment: ELISA immunological cross-reactivity with sera of cancer patients exposed to avidin and streptavidin
Assay type: binding
Settings: diluted 1:100

Substance: Streptavidin: bacterial analog for avidin from S. avidinii (SEQ ID NO:7) [reference compound]
- Recognition by patient sera (ELISA, absorbance at 405 nm): even more clearly
